# According to the supplement of paper PMC12819154, “High-throughput peptide-centric local stability assay extends protein–ligand identification to membrane proteins, tissues and bacteria” (Nature Structural & Molecular Biology, 2025):
# Amino acid sequences for entries named in this document (tags omitted). A change or cut given only in a name is not applied to a line headed by its entry.
# UniProt Q99K48: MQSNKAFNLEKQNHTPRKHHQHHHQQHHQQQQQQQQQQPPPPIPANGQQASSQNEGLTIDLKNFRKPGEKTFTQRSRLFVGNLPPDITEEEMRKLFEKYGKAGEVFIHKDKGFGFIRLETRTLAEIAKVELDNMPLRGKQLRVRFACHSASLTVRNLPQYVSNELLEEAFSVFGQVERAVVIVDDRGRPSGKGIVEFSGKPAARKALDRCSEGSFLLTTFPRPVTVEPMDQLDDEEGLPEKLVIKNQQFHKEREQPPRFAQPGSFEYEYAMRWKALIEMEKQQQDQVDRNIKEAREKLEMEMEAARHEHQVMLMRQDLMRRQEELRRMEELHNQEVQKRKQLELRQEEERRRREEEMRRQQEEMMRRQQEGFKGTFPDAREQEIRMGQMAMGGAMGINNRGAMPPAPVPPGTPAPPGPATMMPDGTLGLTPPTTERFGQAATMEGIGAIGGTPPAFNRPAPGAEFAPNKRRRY
# UniProt Q99KR6: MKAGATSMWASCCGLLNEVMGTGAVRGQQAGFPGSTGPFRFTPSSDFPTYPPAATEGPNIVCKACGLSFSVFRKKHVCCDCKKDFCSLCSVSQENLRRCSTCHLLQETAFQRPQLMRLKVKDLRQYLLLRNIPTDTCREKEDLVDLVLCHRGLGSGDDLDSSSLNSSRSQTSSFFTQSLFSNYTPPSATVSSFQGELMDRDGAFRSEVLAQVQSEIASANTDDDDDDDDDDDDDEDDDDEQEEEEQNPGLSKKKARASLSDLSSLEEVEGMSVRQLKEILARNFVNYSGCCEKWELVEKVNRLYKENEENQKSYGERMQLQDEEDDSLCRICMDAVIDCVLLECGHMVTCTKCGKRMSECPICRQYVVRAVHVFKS
# UniProt Q921I2: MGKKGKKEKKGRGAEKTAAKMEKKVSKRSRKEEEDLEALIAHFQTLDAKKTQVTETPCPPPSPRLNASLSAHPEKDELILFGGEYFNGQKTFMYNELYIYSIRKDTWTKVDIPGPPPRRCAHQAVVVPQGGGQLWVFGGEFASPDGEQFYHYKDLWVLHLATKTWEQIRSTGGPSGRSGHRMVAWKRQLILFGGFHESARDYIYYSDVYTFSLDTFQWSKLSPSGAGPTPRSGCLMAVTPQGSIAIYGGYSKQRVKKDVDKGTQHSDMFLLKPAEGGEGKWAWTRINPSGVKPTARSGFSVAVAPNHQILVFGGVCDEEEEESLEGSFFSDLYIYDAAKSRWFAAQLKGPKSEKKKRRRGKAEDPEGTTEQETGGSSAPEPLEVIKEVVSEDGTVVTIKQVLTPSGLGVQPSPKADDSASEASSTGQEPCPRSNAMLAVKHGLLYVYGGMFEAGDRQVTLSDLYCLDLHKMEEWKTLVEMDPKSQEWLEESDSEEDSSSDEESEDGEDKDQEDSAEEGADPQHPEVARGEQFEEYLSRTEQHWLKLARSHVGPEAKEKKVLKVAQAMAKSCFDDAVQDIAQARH
# UniProt Q923Q2: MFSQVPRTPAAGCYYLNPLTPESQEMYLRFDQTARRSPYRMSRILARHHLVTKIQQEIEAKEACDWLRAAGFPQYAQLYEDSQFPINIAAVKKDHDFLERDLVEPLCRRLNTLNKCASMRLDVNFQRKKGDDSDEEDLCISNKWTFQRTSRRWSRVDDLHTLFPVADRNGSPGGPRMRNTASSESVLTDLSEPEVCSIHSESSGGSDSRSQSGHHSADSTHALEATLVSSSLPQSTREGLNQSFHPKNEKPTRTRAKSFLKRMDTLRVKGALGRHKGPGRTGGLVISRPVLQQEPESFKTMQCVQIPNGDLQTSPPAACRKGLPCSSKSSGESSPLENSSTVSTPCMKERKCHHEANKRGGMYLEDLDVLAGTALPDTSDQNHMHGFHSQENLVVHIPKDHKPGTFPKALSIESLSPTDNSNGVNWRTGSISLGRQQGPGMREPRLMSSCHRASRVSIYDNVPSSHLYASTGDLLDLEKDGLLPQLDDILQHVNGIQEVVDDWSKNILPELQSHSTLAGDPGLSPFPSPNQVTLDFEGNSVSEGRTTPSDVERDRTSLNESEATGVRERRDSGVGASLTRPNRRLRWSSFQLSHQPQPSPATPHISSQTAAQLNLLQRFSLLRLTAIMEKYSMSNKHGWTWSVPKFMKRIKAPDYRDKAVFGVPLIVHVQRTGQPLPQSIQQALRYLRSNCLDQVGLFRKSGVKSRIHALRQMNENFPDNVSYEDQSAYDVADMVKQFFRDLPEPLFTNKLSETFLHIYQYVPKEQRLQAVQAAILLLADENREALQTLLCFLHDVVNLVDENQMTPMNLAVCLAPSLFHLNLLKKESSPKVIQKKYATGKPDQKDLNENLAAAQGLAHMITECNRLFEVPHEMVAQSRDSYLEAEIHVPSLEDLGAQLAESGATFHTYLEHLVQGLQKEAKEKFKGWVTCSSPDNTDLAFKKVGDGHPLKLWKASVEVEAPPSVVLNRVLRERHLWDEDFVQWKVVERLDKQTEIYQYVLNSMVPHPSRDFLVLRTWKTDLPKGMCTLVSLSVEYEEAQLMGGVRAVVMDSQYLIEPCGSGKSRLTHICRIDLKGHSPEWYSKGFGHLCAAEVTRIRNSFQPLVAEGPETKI
# UniProt Q99LH9: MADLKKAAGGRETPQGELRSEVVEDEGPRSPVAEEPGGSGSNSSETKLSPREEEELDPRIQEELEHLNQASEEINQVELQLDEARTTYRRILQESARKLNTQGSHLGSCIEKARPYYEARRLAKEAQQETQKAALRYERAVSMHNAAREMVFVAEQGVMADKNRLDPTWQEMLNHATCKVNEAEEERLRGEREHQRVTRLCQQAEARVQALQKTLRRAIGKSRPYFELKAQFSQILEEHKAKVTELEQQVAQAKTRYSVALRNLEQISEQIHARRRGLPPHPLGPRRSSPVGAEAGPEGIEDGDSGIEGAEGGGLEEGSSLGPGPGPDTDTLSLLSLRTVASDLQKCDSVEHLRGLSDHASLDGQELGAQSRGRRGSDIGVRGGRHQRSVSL
# UniProt Q99J62, whole entry: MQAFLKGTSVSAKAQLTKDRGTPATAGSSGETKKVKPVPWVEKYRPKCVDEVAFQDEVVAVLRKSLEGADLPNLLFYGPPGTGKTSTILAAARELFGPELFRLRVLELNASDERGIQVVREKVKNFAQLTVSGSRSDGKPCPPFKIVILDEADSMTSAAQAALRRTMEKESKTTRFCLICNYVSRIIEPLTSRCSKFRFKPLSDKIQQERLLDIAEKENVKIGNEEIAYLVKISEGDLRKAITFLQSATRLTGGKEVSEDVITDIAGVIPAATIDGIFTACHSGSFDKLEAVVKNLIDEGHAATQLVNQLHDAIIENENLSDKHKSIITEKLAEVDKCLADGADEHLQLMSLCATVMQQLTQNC
# UniProt Q99L00: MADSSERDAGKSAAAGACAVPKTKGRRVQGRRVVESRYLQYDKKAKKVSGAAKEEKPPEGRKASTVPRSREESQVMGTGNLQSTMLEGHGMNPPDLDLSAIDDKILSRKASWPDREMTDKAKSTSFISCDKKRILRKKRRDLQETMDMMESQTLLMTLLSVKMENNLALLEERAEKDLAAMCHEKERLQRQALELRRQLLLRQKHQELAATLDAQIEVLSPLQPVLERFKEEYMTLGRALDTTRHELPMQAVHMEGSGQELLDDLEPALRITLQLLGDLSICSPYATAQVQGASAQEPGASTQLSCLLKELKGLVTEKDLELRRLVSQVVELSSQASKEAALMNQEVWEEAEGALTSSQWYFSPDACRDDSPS
# UniProt Q99L85: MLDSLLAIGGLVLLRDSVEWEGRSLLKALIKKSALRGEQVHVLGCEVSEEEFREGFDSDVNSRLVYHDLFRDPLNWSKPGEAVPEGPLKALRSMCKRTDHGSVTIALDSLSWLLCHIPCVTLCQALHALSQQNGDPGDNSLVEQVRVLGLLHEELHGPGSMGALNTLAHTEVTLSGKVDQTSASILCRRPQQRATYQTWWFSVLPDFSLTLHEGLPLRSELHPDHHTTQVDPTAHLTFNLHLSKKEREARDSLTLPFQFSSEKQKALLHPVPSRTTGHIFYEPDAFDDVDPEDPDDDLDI
# UniProt Q99JP6: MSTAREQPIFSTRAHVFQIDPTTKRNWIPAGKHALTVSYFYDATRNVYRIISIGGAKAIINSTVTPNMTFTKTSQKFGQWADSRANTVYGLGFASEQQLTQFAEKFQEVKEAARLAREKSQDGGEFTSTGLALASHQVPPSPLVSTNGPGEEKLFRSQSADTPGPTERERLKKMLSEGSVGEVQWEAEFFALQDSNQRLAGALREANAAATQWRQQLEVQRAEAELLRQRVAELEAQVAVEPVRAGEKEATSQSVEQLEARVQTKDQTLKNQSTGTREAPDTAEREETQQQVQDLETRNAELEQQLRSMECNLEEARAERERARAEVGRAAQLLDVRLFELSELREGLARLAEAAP
# UniProt Q99JX4, whole entry: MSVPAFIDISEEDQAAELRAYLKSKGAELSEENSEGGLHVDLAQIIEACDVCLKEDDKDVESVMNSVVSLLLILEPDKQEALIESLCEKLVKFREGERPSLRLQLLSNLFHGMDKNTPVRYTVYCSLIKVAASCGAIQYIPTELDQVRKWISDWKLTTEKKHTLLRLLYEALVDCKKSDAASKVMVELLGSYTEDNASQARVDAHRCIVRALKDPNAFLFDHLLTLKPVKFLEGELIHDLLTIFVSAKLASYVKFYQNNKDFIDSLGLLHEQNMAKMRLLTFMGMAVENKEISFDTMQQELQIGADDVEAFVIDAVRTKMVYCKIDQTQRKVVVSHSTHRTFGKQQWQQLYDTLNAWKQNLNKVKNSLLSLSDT
# UniProt Q921L7: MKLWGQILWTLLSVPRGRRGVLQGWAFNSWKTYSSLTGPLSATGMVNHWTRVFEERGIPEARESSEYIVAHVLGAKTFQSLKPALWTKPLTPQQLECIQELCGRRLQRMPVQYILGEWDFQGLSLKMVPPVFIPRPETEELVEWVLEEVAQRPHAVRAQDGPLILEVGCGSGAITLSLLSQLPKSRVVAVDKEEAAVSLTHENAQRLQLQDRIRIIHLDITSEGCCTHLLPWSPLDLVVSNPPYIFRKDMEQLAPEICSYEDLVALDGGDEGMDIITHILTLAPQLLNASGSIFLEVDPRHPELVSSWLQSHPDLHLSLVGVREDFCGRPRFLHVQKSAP
# UniProt Q921Y2: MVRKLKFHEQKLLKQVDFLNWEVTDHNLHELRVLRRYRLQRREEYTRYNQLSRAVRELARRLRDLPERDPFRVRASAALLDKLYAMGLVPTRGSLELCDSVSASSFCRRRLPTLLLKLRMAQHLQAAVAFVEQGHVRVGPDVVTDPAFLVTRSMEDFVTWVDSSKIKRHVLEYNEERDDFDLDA
# UniProt Q925F4: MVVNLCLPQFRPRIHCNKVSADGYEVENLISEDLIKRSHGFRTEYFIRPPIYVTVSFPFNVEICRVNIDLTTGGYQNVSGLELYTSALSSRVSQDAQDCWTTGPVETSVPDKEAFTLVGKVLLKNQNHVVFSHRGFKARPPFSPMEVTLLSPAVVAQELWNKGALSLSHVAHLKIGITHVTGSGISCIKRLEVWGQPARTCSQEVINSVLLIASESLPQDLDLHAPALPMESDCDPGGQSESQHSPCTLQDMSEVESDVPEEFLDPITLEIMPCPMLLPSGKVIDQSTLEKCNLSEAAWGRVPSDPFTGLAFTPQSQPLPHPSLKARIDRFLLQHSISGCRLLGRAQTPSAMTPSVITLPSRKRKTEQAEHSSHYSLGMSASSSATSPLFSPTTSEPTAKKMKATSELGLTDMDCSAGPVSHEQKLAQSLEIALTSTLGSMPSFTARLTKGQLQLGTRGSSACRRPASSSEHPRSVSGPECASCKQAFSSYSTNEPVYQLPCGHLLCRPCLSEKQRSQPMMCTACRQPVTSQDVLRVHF
# UniProt Q922Q1: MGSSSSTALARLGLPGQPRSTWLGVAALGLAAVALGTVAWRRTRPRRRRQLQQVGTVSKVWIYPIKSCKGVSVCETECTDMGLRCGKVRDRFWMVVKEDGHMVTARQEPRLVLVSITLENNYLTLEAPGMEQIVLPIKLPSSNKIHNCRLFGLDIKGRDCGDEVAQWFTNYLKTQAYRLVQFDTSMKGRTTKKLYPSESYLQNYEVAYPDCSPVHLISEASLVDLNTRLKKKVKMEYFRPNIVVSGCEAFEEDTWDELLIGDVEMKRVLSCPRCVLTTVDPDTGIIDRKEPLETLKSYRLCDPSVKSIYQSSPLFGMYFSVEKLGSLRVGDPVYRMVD
# UniProt Q921R8: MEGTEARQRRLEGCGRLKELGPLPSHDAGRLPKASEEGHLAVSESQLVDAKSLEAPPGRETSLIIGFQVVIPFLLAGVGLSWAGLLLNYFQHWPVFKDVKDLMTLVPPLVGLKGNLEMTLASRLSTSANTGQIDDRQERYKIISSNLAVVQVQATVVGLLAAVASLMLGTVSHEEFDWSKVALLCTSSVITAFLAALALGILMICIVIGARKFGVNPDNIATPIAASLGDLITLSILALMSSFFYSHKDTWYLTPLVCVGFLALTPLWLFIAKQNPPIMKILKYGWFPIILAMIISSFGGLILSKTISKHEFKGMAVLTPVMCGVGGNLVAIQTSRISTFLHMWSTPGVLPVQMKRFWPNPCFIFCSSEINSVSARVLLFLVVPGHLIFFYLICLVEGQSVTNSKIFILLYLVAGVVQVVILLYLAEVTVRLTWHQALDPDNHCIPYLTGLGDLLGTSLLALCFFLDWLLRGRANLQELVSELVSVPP
# This is one part of the list. Most values lie at the level of the controls, where differences are scatter.
# Compound: CN[C@@H]1C[C@H]2O[C@@](C)([C@@H]1OC)n1c3ccccc3c3c4c(c5c6ccccc6n2c5c31)C(=O)NC4 [staurosporine]
# Experiment: log2 fold change of tryptic peptide abundance, ligand vs vehicle (limited proteolysis) (log2 ratio); higher = more trypsin-susceptible (destabilized)
# Conditions: ligand concentration: 20 uM; sample: mouse liver crude lysate; replicate design: treated separately
row,Target,log2 fold change
1,"UniProt Q99K48 (peptide sequence: MEELHNQEVQK, peptide start residue: 328)",0.129
2,"UniProt Q99JF5 (peptide sequence: IIQLVHR, peptide start residue: 285)",-0.312
3,"UniProt Q99LB2 (peptide sequence: AREDFIK, peptide start residue: 229)",0.119
4,"UniProt Q99KR6 (peptide sequence: LYKENEENQK, peptide start residue: 303)",-0.104
5,"UniProt Q99KG3 (peptide sequence: INEDWLCNK, peptide start residue: 213)",0.402
6,"UniProt Q921I2 (peptide sequence: TEQHWLK, peptide start residue: 539)",0.108
7,"UniProt Q923Q2 (peptide sequence: SNCLDQVGLFR, peptide start residue: 689)",0.223
8,"UniProt Q924W5 (peptide sequence: GLLQAYCCHNHADER, peptide start residue: 535)",0.203
9,"UniProt Q99LH9 (peptide sequence: VTELEQQVAQAK, peptide start residue: 243)",0.282
10,"UniProt Q99J62 (peptide sequence: TSTILAAAR, peptide start residue: 85)",0.431
11,"UniProt Q99JY0 (peptide sequence: KMMLDLNK, peptide start residue: 182)",0.112
12,"UniProt Q99L00 (peptide sequence: SAAAGACAVPK, peptide start residue: 12)",0.247
13,"UniProt Q99KK2 (peptide sequence: HLIEMGYLQGGK, peptide start residue: 221)",0.231
14,"UniProt Q99L85 (peptide sequence: ALLHPVPSR, peptide start residue: 266)",0.25
15,"UniProt Q99JP6 (peptide sequence: EANAAATQWR, peptide start residue: 205)",-0.302
16,"UniProt Q920Q6 (peptide sequence: ECMVMRDPTTKR, peptide start residue: 49)",0.0301
17,"UniProt Q99KS2 (peptide sequence: LAEGFDVSTDVIRR, peptide start residue: 107)",0.262
18,"UniProt Q924A2 (peptide sequence: AEASSNDIAGAR, peptide start residue: 1601)",0.239
19,"UniProt Q99JX4 (peptide sequence: VKNSLLSLSDT, peptide start residue: 364)",0.508
20,"UniProt Q922M3 (peptide sequence: SHHLDEDEERER, peptide start residue: 282)",0.254

# An excerpt of these results, with bars between the fields.
row | Target | log2 fold change
15 | UniProt Q99JP6 (peptide sequence: EANAAATQWR, peptide start residue: 205) | -0.302
16 | UniProt Q920Q6 (peptide sequence: ECMVMRDPTTKR, peptide start residue: 49) | 0.0301
17 | UniProt Q99KS2 (peptide sequence: LAEGFDVSTDVIRR, peptide start residue: 107) | 0.262

# Next entries:

row,Target,log2 fold change
1,"UniProt Q922K7 (peptide sequence: VLLDAPCSGTGVISKDPAVK, peptide start residue: 442)",0.262
2,"UniProt Q921N8 (peptide sequence: QMFGPQVLTTR, peptide start residue: 152)",0.166
3,"UniProt Q99KV1 (peptide sequence: LALQLHPDRNPDDPQAQEK, peptide start residue: 48)",0.179
4,"UniProt Q921L7 (peptide sequence: ESSEYIVAHVLGAK, peptide start residue: 63)",-0.199
5,"UniProt Q921Y2 (peptide sequence: QVDFLNWEVTDHNLHELR, peptide start residue: 15)",0.138
6,"UniProt Q99JW4 (peptide sequence: FVEFDMKPVCKK, peptide start residue: 291)",-0.172
7,"UniProt Q99JX3 (peptide sequence: VQENSPGHR, peptide start residue: 22)",-0.559
8,"UniProt Q920Q4 (peptide sequence: ILAHWACYK, peptide start residue: 484)",0.647
9,"UniProt Q93092 (peptide sequence: TIVMGASFR, peptide start residue: 231)",0.25
10,"UniProt Q99K24 (peptide sequence: SHSLYPEPTAHTHGAGLR, peptide start residue: 144)",-0.0719
11,"UniProt Q925F4 (peptide sequence: GQLQLGTR, peptide start residue: 451)",-0.0706
12,"UniProt Q922Q1 (peptide sequence: CVLTTVDPDTGIIDRK, peptide start residue: 274)",0.193
13,"UniProt Q99JV5 (peptide sequence: IKLEGLSDVASISTK, peptide start residue: 15)",0.119
14,"UniProt Q921R8 (peptide sequence: ELGPLPSHDAGRLPK, peptide start residue: 19)",0.1
15,"UniProt Q922Y1 (peptide sequence: MLELVAQK, peptide start residue: 98)",-0.093
16,"UniProt Q922E6 (peptide sequence: INFHHTSSEDVFTK, peptide start residue: 120)",-0.218
17,"UniProt Q99L28 (peptide sequence: QNIHLIR, peptide start residue: 129)",0.109
18,"UniProt Q99L60 (peptide sequence: KGSATYRDHK, peptide start residue: 284)",-0.127
19,"UniProt Q923E4 (peptide sequence: LSEITEKPPRPQK, peptide start residue: 499)",-0.562
20,"UniProt Q921X6 (peptide sequence: VKVQPPDADPVEIENR, peptide start residue: 6)",0.337
